Some entries share one result that the patent states for a list of compounds.
Test: Determination of the maximum tolerated dose (MTD), once weekly i.v.
Assay type: in vivo
Settings: in a few animals; i.v. bolus once weekly, 24.5 mg/kg prodrug, 10 mg/kg parent drug
Description: Mice bearing SW480 colorectal cancer xenografts are used to test and compare the anti-cancer efficacy and tolerability of intravenous (i.v.) application of the prodrug according to Example 1 (S-2,6-diamino-hexanoic acid [4-(2-{2-[4-(2-cyano-ethylamino)-furazan-3-yl]-benzoimidazol-1-yl}-acetyl)-phenyl]-amide hydrochloride salt) and the corresponding parent drug” (3-(4-{1-[2-(4-amino-phenyl)-2-oxo-ethyl]-1H-benzoimidazol-2-yl}-furazan-3-ylamino)-propionitrile) at the maximum tolerated dose level (MTD). Prior to the efficacy experiment, a determination of the MTD of each compound administered once weekly is performed in non-tumor-bearing nude mice of the same strain. Administration of 24.5 mg/kg prodrug and 10 mg/kg parent drug, given as an i.v. bolus once weekly, results in body weight losses >10% in a few animals in both groups. The MTDs in tumor-bearing mice are, therefore, determined to be 15-20% lower, resulting in doses of 21 mg/kg prodrug and 8 mg/kg parent drug. Human colorectal carcinoma cells (SW480) are injected subcutaneously (4×10^6 cells) into the back of 4-8-week old athymic nude mice. Tumor volumes are determined from calliper measurements of tumor length (L) and width (1) according to the formula (L×l^2)/2. Tumors are allowed to expand to a volume of 200 mm^3 (±10%) before treatment start. […] Tumor volume and body weight are monitored daily.

`N#CCCNc1nonc1-c1nc2ccccc2n1CC(=O)c1ccc(N)cc1` [Parent Drug, 3-(4-{1-[2-(4-Amino-phenyl)-2-oxo-ethyl]-1H-benzoimidazol-2-yl}-furazan-3-ylamino)-propionitrile, reference compound] gave a body weight losses greater than 10%.

— patent US8802858B2, “Furazanobenzimidazoles as prodrugs to treat neoplastic or autoimmune diseases” (Basilea Pharmaceutica AG, priority 2009, dated 2014)
